Test results: patent US20240209086A1
Residue numbers refer to the chain shown, from its start. Results are given in words; binding and its absence hold for the method and conditions named. Some entries that bind do so weakly or less than the wild type.

How the values were obtained:
[1] = biological target: T1, canine CD20 on cells (HEK293, MDCK II, CLBL-1 or native B cells) (canine) (UniProt Q3C2E2); experiment: flow cytometry, canine CD20-overexpressing MDCK cells, 1 µg/ml
T1 sequence: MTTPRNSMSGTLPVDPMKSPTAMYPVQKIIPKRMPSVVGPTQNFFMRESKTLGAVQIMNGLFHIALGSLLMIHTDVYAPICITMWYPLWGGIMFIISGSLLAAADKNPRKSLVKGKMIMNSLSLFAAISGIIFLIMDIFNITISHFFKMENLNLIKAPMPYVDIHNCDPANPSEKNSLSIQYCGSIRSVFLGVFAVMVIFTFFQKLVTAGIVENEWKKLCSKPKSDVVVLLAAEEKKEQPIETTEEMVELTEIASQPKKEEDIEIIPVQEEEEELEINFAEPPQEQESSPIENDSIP

[2] = biological target: T1, canine CD20 on cells (HEK293, MDCK II, CLBL-1 or native B cells) (canine); experiment: flow cytometry, canine CD20 MDCK cells, 1 µg/ml, PE anti-human Fc; mean intensities of FIG. 13C
[3] = biological target: T1, canine CD20 on cells (HEK293, MDCK II, CLBL-1 or native B cells) (canine); experiment: flow cytometry, canine CD20 MDCK cells, 1 µg/ml, PE anti-human Fc

Measured: binding

B1: PMX172VH/PMX272VH/PMX172VL (bispecific antibody, V domains shown)
VH 1: EVQLVESGGDLVKPGGSLRLSCVASGFTFSSYHMSWVRQAPGKGLQWVAYSNSGGSRTSYADAVKGRFTISRDNAKNTLYLQMNSLRAEDTAVYYCASEGGGGRYGYKDYGMDYWGHGTSLFVSS
VH 2: EVQLVESGGDLVKPGGSLRLSCVASGFTFSRYYMNWVRQAPGKGLQWVAYIDSDGSSTSYADAVKGRFTISRDNAKNTLYLQMNSLRADDTAVYYCTSFDYWGQGTLVTVSS
VL: SYVLTQLPSKNVTLKQPAHITCGGDNIGSKSVHWYQQKLGQAPVLIIYYDSSRPTGIPERFSGANSGNTATLTISGALAEDEADYYCQVWDSSAKAWVFGEGTQLTVL
binds: all assays above

B2: PMX172VH/PMX273VH/PMX172VL (bispecific antibody, V domains shown)
VH 1: B1 VH 1
VH 2: B1 VH 2 with V2M, Y33H, N35S, S57P, S59N, D89E, S98T, F99Y, Y101Q
VL: B1 VL
binds: all assays above
